The list shows only some results of the screen, not a fair sample: it is rich in T/C values a quarter to a half above the control, in often repeated tests (any T/C) and in doses without a T/C. Further doses and runs are listed elsewhere. T/C: endpoint of the treated group in % of that of the vehicle group. Schedules are NCI's codes, taken here to give the interval after Q, in days (D) or hours (H), and the number of doses after X. Some T/C values are followed by the survivors on the day toxicity was checked, most often the fifth; without a count, all were alive then. Some entries were tested several times; the results are listed from low to high. Counts like (3×) count equal records among those shown. Some entries give survivors of the animals treated and no T/C: the source files T/C as zero there, which appears to mark a toxic dose or a test without result, not a measured value. Counts of survivors are from the toxicity check (mostly the fifth day) where no day follows; animals may have died later.
System: B6C3F1 mice, colon carcinoma 38 s.c., T/C
Assay: NCI In Vivo Anticancer Drug Screen. Data for tumor model Colon Carcinoma 38 (subcutaneous) in B6C3F1 mice
Conditions: T/C endpoint: median tumor weight (est.), higher T/C = larger tumour; for T/C: evaluated on day 20
Protocol: The antitumor activity of compounds was measured in mice bearing transplantable tumors. Survival or tumor size were measured and the results are expressed as the measurement made in the treated group (T) divided by the measurement made in the vehicle treated control group (C). The tumor model used in this assay is Colon Carcinoma 38 (subcutaneous) in B6C3F1 mice

[1] = dose: 12.5 mg/kg/injection, schedule: Q07DX002 (ip), vehicle: Klucel (hydroxypropylcellulose) (HPC)
[2] = dose: 24.0 mg/kg/injection, schedule: Q07DX002 (ip), vehicle: saline
[3] = dose: 48.0 mg/kg/injection, schedule: Q07DX002 (ip), vehicle: saline

**Q.** How did the survivor count (dose: 60.0 mg/kg/injection, schedule: Q07DX002 (ip), vehicle: Klucel (hydroxypropylcellulose) (HPC)) turn out when NC(=O)C1=CC2C3C=CC2(O)C(=O)OC3O1 (stereo not given) was run?
**A.** 2 of 10 on day 20

**Q.** And the survivor count (dose: 120.0 mg/kg/injection, schedule: Q07DX002 (ip), vehicle: Klucel (hydroxypropylcellulose) (HPC))?
**A.** 0 of 10 on day 20

**Q.** O=c1[nH]c(=O)n([C@H]2CCCO2)cc1F was tested. Which survivor count (dose: 1280.0 mg/kg/injection, schedule: Q07DX003 (ip), vehicle: Klucel (hydroxypropylcellulose) (HPC)) did it give?
**A.** 1 of 10 on day 20

**Q.** Which T/C (dose: 75.0 micrograms/kg/injection, schedule: Q07DX002 (ip), vehicle: saline + alcohol) does the source give for CCC/C=C/C=C/C(=O)OC1/C(=C/C(=O)OC)CC2CC(C(C)O)OC(=O)CC(O)CC3CC(OC(C)=O)C(C)(C)C(O)(CC4C/C(=C/C(=O)OC)CC(/C=C/C(C)(C)C1(O)O2)O4)O3 (stereo not given) here?
**A.** 127 % of control

**Q.** What about the T/C (dose: 150.0 micrograms/kg/injection, schedule: Q07DX002 (ip), vehicle: saline + alcohol) of the same molecule?
**A.** 136 % of control [9 of 10 alive on day 20]

**Q.** What about the survivor count (dose: 600.0 micrograms/kg/injection, schedule: Q07DX002 (ip), vehicle: saline + alcohol) of the same molecule?
**A.** 0 of 10 on day 20

**Q.** With CC(=O)CC(=O)CCC(=O)O as the molecule, how does the survivor count (dose: 800.0 mg/kg/injection, schedule: Q07DX002 (ip), vehicle: saline) read?
**A.** 0 of 10 on day 20

**Q.** For O=NN(CCF)C(=O)NC1CCCCC1, which T/C [1] is on record?
**A.** 125 % of control

**Q.** And the survivor count [1]?
**A.** 6 of 10 on day 20

**Q.** And the T/C (dose: 25.0 mg/kg/injection, schedule: Q07DX002 (ip), vehicle: Klucel (hydroxypropylcellulose) (HPC))?
**A.** 125 % of control

**Q.** And the survivor count (dose: 100.0 mg/kg/injection, schedule: Q07DX002 (ip), vehicle: Klucel (hydroxypropylcellulose) (HPC))?
**A.** 0 of 10 on day 20 and 2 of 10 on day 20

**Q.** How did the survivor count (dose: 400.0 mg/kg/injection, schedule: Q07DX002 (ip), vehicle: Klucel (hydroxypropylcellulose) (HPC)) turn out when O=C(O)CSc1c(Cl)c(=O)oc2ccc(Cl)cc12 was run?
**A.** 2 of 10 on day 20

**Q.** COc1nc(C(Cl)(Cl)Cl)c(Cl)c(OC)c1Cl was tested. Which survivor count (dose: 800.0 mg/kg/injection, schedule: Q07DX002 (ip), vehicle: Klucel (hydroxypropylcellulose) (HPC)) did it give?
**A.** 3 of 10 on day 20

**Q.** Which results are given for COc1ccccc1CC(=O)O?
**A.** survivor count (dose: 600.0 mg/kg/injection, schedule: Q07DX002 (ip), vehicle: saline with Tween-80): 5 of 10 on day 20; survivor count (dose: 1200.0 mg/kg/injection, schedule: Q07DX002 (ip), vehicle: saline with Tween-80): 4 of 10 on day 20

**Q.** With CC[C@H](CC[C@@H](C)C1CC[C@H]2[C@@H]3CC=C4C[C@@H](OP(=O)(N5CC5)N5CC5)CC[C@]4(C)[C@H]3CC[C@]12C)C(C)C (stereo not given in full) as the molecule, how does the survivor count (dose: 1800.0 mg/kg/injection, schedule: Q07DX002 (ip), vehicle: saline with Tween-80) read?
**A.** 5 of 10 on day 20

**Q.** Which results are given for O=C(CCCCCCC(=O)ON1C(=O)CCC1=O)ON1C(=O)CCC1=O?
**A.** T/C (dose: 400.0 mg/kg/injection, schedule: Q07DX002 (ip), vehicle: saline with Tween-80): 141 % of control; survivor count (dose: 800.0 mg/kg/injection, schedule: Q07DX002 (ip), vehicle: saline with Tween-80): 0 of 10 on day 20

**Q.** With Cc1cc(NS(=O)(=O)c2ccc(N=Nc3cc(N=Nc4ccc(S(=O)(=O)Nc5cc(C)nc(C)n5)cc4)c4c(NC(=O)C(Cl)Cl)cccc4c3OC(=O)C(Cl)Cl)cc2)nc(C)n1 (tested in a mixture with another compound) as the molecule, how does the T/C (dose: 50.0 mg/kg/injection, schedule: Q07DX002 (ip), vehicle: suspension in saline) read?
**A.** 136 % of control [9 of 10 alive on day 20]

**Q.** What about the T/C (dose: 100.0 mg/kg/injection, schedule: Q07DX002 (ip), vehicle: suspension in saline) of the same molecule?
**A.** 133 % of control

**Q.** What about the T/C (dose: 200.0 mg/kg/injection, schedule: Q07DX002 (ip), vehicle: suspension in saline) of the same molecule?
**A.** 139 % of control

**Q.** What about the survivor count (dose: 800.0 mg/kg/injection, schedule: Q07DX002 (ip), vehicle: suspension in saline) of the same molecule?
**A.** 0 of 10 on day 20

**Q.** Which survivor count (dose: 266.66 mg/kg/injection, schedule: Q03HX006 (ip), vehicle: saline with Tween-80) does the source give for Cc1ccoc1 here?
**A.** 1 of 10 on day 20

**Q.** How did the T/C (dose: 3.0 mg/kg/injection, schedule: Q07DX002 (ip), vehicle: saline) turn out when O=CC(NC(=O)N(CCCl)N=O)C(O)C(O)C(O)CO (stereo not given) was run?
**A.** 71 (2×), 74, 87, 90, 93, 103, 120, 126 % of control

**Q.** What about the T/C (dose: 6.0 mg/kg/injection, schedule: Q07DX002 (ip), vehicle: saline) of the same molecule?
**A.** 53 [9 of 10 alive on day 20] (2×), 71, 72, 75, 102, 114, 119, 147 % of control

**Q.** What about the T/C (dose: 12.0 mg/kg/injection, schedule: Q07DX002 (ip), vehicle: saline) of the same molecule?
**A.** 38, 42 (2×), 43, 55 [9 of 10 alive on day 20], 58, 66, 108, 141 % of control

**Q.** What about the T/C [2] of the same molecule?
**A.** 9, 12 [9 of 10 alive on day 20] (2×), 15, 28, 36, 43 [8 of 10 alive on day 20], 120 % of control

**Q.** What about the survivor count [2] of the same molecule?
**A.** 6 of 10 on day 20

**Q.** And the T/C [3]?
**A.** 14 % of control [8 of 10 alive on day 20]

**Q.** What about the survivor count [3] of the same molecule?
**A.** 0 of 10 on day 20, 2 of 10 on day 20, 3 of 10 on day 20

**Q.** With c1ccc([C@H]2CN3CCSC3=N2)cc1 as the molecule, how does the T/C (dose: 5.0 mg/kg/injection, schedule: Q07DX002 (ip), vehicle: saline) read?
**A.** 80, 87, 91, 110, 112, 113, 117 [9 of 10 alive on day 20], 145 % of control

**Q.** And the T/C (dose: 10.0 mg/kg/injection, schedule: Q07DX002 (ip), vehicle: saline)?
**A.** 64, 80, 97, 103, 103 [9 of 10 alive on day 20], 109 [9 of 10 alive on day 20], 114, 116 % of control [9 of 10 alive on day 20]

**Q.** And the T/C (dose: 20.0 mg/kg/injection, schedule: Q07DX002 (ip), vehicle: saline)?
**A.** 53, 79, 92 [9 of 10 alive on day 20], 95 [8 of 10 alive on day 20], 96, 106 (2×), 127 % of control

**Q.** And the T/C (dose: 40.0 mg/kg/injection, schedule: Q07DX002 (ip), vehicle: saline)?
**A.** 46, 65, 81, 86 [9 of 10 alive on day 20], 101 [7 of 10 alive on day 20], 106 [8 of 10 alive on day 20], 106 [9 of 10 alive on day 20], 113 % of control [9 of 10 alive on day 20]

**Q.** What about the survivor count (dose: 80.0 mg/kg/injection, schedule: Q07DX002 (ip), vehicle: saline) of the same molecule?
**A.** 0 of 10 on day 20
